Patent US20080003254A1, “SYSTEMS AND METHODS FOR DELIVERING A RAPAMYCIN ANALOG THAT DO NOT INHIBIT HUMAN CORONARY ARTERY ENDOTHELIAL CELL MIGRATION” (ABBOTT LABORATORIES, priority 2006, published 2008)
For at least one compound, name, drawing or mass did not settle the structure.

How the values were obtained:
[1] = tested on: human coronary artery smooth muscle cells (hCaSMC); assay: hCaSMC migration in modified Boyden chambers; type: cell-based; settings: for effect on FBS-induced hCaSMC migration: 24 hours drug pretreatment in growth media, migration in response to FBS alone, FIG. 4
Protocol: (§1) The cancer chemotherapeutic, paclitaxel is hypothesized to directly interfere with microtubule homeostasis leading to the inhibition of EC migration and proliferation, which can lead to increased thrombosis. Reduced p70S6K activation alone will not result in anti-migratory activity. To examine the comparative effects of sirolimus, zotarolimus, dexamethasone, and paclitaxel on human coronary artery smooth muscle and endothelial cell migration, studies were conducted using modified Boyden chambers. As such, EC migration in response to HFGF, HEGF, VEGF, R^3-IGF-1 and FBS was determined using a modified Boyden chamber. Migration was induced using a variety of chemotactic stimuli including fetal bovine serum (FBS) in the presence and absence of growth factors as well as […] homodimer B (PDGF-BB). Anti-migratory activity was assessed after acute drug treatment and after pretreatment (24 hours) in basal or growth conditions.
(§2) Primary human coronary artery smooth muscle (hCaSMC) and endothelial cells (hCaEC) obtained from Cambrex (Walkersville, Md.) were routinely maintained in media recommended by the manufacturer. The hCaSMC were grown in a smooth muscle growth medium (“minimal media”, SmnBM, Cambrex) supplemented with the appropriate SingleQuot® to yield the complete medium containing 5% FBS, 0.1% hEGF, 0.2% hFGF-B, and 0.1% insulin (hCaSMC growth media). The hCaEC were maintained in the corresponding complete medium consisting of an endothelial cell growth medium (“minimal media”, EBM-2, Cambrex) supplemented with the appropriate SingleQuot® to yield the complete medium containing 5% FBS, 0.1% HEGF-B, 0.4% FGF, 0.1% R3-IGF, 0.04% hydrocortisone, 0.1% VEGF, and 0.1% ascorbic acid (hCaEC growth media). Cells were routinely propagated in the appropriate medium in humidified incubators maintained at 37° C. in an atmosphere containing 5% CO2. When necessary, each cell type was passed at 75% confluence.
(§3) Cells were maintained and used prior to 7 population doublings in all experiments. […] Cells were counted, transferred to a 50 ml tube and centrifuged. […]
(§4) Cells (hCaEC or hCaSMC) were synchronized for 24 hours in basal media prior to all migration experiments. In acute studies, cells were collected, counted, and 200,000 hCaEC or 160,000 hCaSMC placed in the upper chambers of modified boyden chambers in 24 well plates (BD Biosciences). […] After migration, cells were stained with calcein-AM for 90 minutes and fluorescence determined using a plate reader capable of measuring fluorescence emitted by the bottom of the microporous filter. […]

[2] = tested on: p70S6K (T389) phosphorylation; assay: Western blot of p70S6K (T389) phosphorylation in hCaEC; type: cell-based, human; settings: 300 nM drug in growth media for 36 hours after 24 hours synchronization; FIG. 6A
Protocol: Human Coronary Endothelial Cells (hCaEC, Cambrex) were seeded on 100 mm plastic dishes (1-3×10^5 cells per dish) and incubated at 37° C. with 5% CO2 in complete growth media containing hFGF, HEGF, VEGF, R^3-IGF-1 and 5% FBS (GM). Cells were allowed to grow until dishes were 30-40% confluent. Cells were synchronized by incubation in basal media without supplements (BM) for 24 h. After synchronization the BM was replaced with GM containing test compounds, DMSO and BSA (Experimental dish: GM containing 300 nM test compounds, 0.1% BSA; Positive control: GM containing 0.1% BSA and 0.1% DMSO; Negative control: BM containing 0.1 or 0.5% FBS, 0.1% BSA and 0.1% DMSO). […]
The total protein concentration of the samples was determined by a modification of the method of Bradford (Quick Start Bradford Microplate Standard Assay, Bio-Rad) with bovine γ-globulin as a standard.
Total volume of the loaded sample was 45 ul containing 15 ul of 3× sample buffer (Laemmli Sample Buffer, Bio Rad), and sample (30 ul) containing 25 to 50 ug of protein. […] Denaturated samples were separated in 4-15% gradient or 12% Ready Tris-HCl gels (Bio-Rad) in running buffer 25 mM Tris, pH 8.3, 192 mM glycine, 0.1% SDS at 150-180 V for 60-90 minutes and transferred to Hybond-ECL membrane (Amersham Biosciences) in 25 mM Tris, pH 8.3, 192 mM glycine, 20% methanol at 100 V for 1 hour. […]

[3] = tested on: human coronary artery endothelial cells (hCaEC); assay: hCaEC migration in modified Boyden chambers; type: cell-based; settings: for effect on full growth media induced hCaEC migration: 24 hours drug pretreatment in hCaEC full growth media, drug present during migration, FIG. 2
Protocol: as §1, §2, §3, §4

[4] = tested on: p70S6K (T389) phosphorylation; assay: Western blot of p70S6K (T389) phosphorylation in hCaSMC; type: cell-based, human; settings: 300 nM drug for 36 hours after 24 hours synchronization; FIG. 7
Protocol: To determine if inhibition of p70S6K was involved in serum-induced migration Western blot experiments were performed on hCaEC and hCaSMC treated using an experimental paradigm similar to those of the migration experiments. Cells were synchronized for 24 hours in basal media followed by drug treatment in growth media for 36 hours. The effects of drug treatment on p70S6K T389 phosphorylation in hCaEC are illustrated in FIG. 6A-6B.
The hCaSMC were synchronized for 24 hours in basal media and incubated in growth media with or without drugs (300 nM) for 36 hours […]. Membranes were probed with a rabbit anti-phospho-p70S6K (T389) monoclonal antibody (Cell Signaling). […] Furthermore, the anti-migratory activity of the mTOR antagonists is not likely to contribute to their anti-restenotic activity. Conversely, paclitaxel is a potent anti-migratory agent and this effect is likely to contribute to it's anti-restenotic activity.

Structure (SMILES)	effect on FBS-induced hCaSMC migration [1]	effect on PDGF-BB stimulated hCaSMC migration ([1]; 24 hours pretreatment, PDGF-BB (25 ng/ml), FIG. 5)	effect on hCaSMC migration ([1]; acute drug exposure, no pretreatment, induced by FBS, FIG. 1B)	effect on p70S6K T389 phosphorylation in hCaEC [2]	effect on full growth media induced hCaEC migration [3]	effect on hCaEC migration ([3]; acute drug exposure, no pretreatment, 5% FBS, 22 hour migration, FIG. 1A)	effect on p70S6K T389 phosphorylation in hCaSMC [4]	effect on FBS-induced hCaEC migration ([3]; 24 hours drug pretreatment in growth media, migration in response to 5% FBS without additional growth factors, FIG. 3)
C[C@@H]1C[C@H]2[C@@H]3CCC4=CC(=O)C=C[C@]4(C)[C@@]3(F)[C@@H](O)C[C@]2(C)[C@@]1(O)C(=O)CO [dexamethasone]	small anti-migratory effect	inhibited migration	small inhibitory effect	slightly augments	only paclitaxel inhibits	modest pro-migratory effect	without effect	–
CO[C@H]1C[C@@H]2CC[C@@H](C)[C@@](O)(O2)C(=O)C(=O)N2CCCC[C@H]2C(=O)O[C@H]([C@H](C)C[C@@H]2CC[C@@H](O)[C@H](OC)C2)CC(=O)[C@H](C)/C=C(\C)[C@@H](O)[C@@H](OC)C(=O)[C@H](C)C[C@H](C)/C=C/C=C/C=C/1C [sirolimus]	did not significantly block	–	–	completely block	only paclitaxel inhibits	–	completely inhibit	did not significantly block
